According to patent publication US20230295329A1 (published 2023):
These are yes or no findings as the source states them, for the method shown. Binding can be weak; no strength is given.

B1: Hu23-11.IgG4AA (antibody, V domains shown)
VH: EVQLVQSGAEVKKPGSSVKVSCKASGGTFSDYEMHWVRQAPGQGLEWMGLIDPETGGTVYNQKFKDRVTITADKSTSTAYMELSSLRSEDTAVYYCARERFSYYGSTSDWYFDVWGQGTTVTVSS
VL: DIVMTQTPLSLPVTPGEPASISCRSSQSLVHSTGNTYLEWYLQKPGQSPQLLIYKVSNRFSGVPDRFSGSGSGTDFTLKISRVEAEDVGVYYCFQGSHVPYTFGGGTKVEIKR
notes: Full-length IgG4-AA (S228P, F234A, L235A) antibody with kappa light chain; LCDR1 mutant N28T (Kabat)
B2: Hu32a-85.IgG4AA (antibody, V domains shown)
VH: EVQLVQSGAEVKKPGSSVKVSCKASDFTFTDYEIHWVKQAPGHGLEWIGLFDPETGGIVYNQKFKGKATLTADKSTSTAYMEFSSLRSEDTAVYYCTREGYNRDWYFDVWGQGTTVTVSS
VL: B1 VL
notes: Full-length IgG4-AA (S228P, F234A, L235A) antibody with kappa light chain

Biological target: Cyno PD-1 antigen (purchased from Sino Biological) (cynomolgus monkey)
Experiment: SPR (Biacore T200)

Binder | binding
B1 | binds
B2 | binds
